This is an account of results in publication PMC8429438.

No constants are given. Whether binding was seen depends on the method and setting. In cells and extracts the contact can be indirect. Here binding means that the protein was enriched with, or labelled near, the bait; the list need not be complete.

Test [1] concerns the target 1N4R P301S tau from PS19 tauopathy mouse brain (human). The experiment in a line: affinity purification with mass spectrometry; tau immunoprecipitated with HJ8.5 from PS19 mouse brains of weeks 1 through 6, Superdex 200, mass spectrometry (Proteome Discoverer, mouse proteome).
Test [2] addresses human 1N4R P301S tau expressed in PS19 tauopathy mouse brain (human). The experiment in a line: affinity purification with mass spectrometry; soluble tau immunopurified from PS19 mouse brains (weeks 1-6) with the HJ8.5 anti-human tau antibody and protein G-agarose, Superdex 200 SEC, LC-MS/MS searched against the mouse proteome.

B1: DnaJC5 (mouse brain) (protein, UniProt P60904 1-198)
chain: MADQRQRSLSTSGESLYHVLGLDKNATSDDIKKSYRKLALKYHPDKNPDNPEAADKFKEINNAHAILTDATKRNIYDKYGSLGLYVAEQFGEENVNTYFVLSSWWAKALFVVCGLLTCCYCCCCLCCCFNCCCGKCKPKAPEGEETEFYVSPEDLEAQLQSDEREATDTPIVIQPASATETTQLTADSHPSYHTDGFN
In the case of B1, the binding result in test [1] is listed as “binds”.

B2: DnaJC5 (endogenous, PS19 mouse brain) (protein, UniProt P60904 1-198)
chain: B1 chain
On to B2, for which the binding entry in test [2] is “binds”.

B3: DnaJC7 (mouse brain) (protein, UniProt Q9QYI3 1-494)
chain: MAATAECDVVMAATEPELLEDEDAKREAESFKEQGNAYYAKKDYNEAYNYYTKAIDMCPNNASYYGNRAATLMMLGRFREALGDAQQSVRLDDSFVRGHLREGKCHLSLGNAMAACRSFQRALELDHKNAQAQQEFKNANAVMEYEKIAEVDFEKRDFRKVVFCMDRALEFAPACHRFKILKAECLAMLGRYPEAQFVASDILRMDSTNADALYVRGLCLYYEDCIEKAVQFFVQALRMAPDHEKACVACRNAKALKAKKEDGNKAFKEGNYKLAYELYTEALGIDPNNIKTNAKLYCNRGTVNSKLRQLEDAIEDCTNAVKLDDTYIKAYLRRAQCYMDTEQFEEAVRDYEKVYQTEKTKEHKQLLKNAQLELKKSKRKDYYKILGVDKNASEDEIKKAYRKRALMHHPDRHSGASAEVQKEEEKKFKEVGEAFTILSDPKKKTRYDSGQDLDEEGMNMGDFDANNIFKAFFGGPGGFSFEASGPGNFYFQFG
For the molecule B3, the binding result in test [1] was “binds”.

B4: DnaJC7 (endogenous, PS19 mouse brain) (protein, UniProt Q9QYI3 1-494)
chain: B3 chain
B4: in test [2], the binding result was “binds”.

B5: DnaJC6 (mouse brain) (protein, UniProt Q80TZ3 1-938)
chain: MTNPKSGVAESAGLACSRAAAGENRMKDSENKGASSPDMEPSYGGGLFDMVKGGAGRLFSNLKDNLKDTLKDTSSRVIQSVSSYTKGDLDFTYVTSRIIVMSFPVDSVDIGFRNQVDDIRSFLDSRHLDHYTVYNLSPKSYRTAKFHSRVSECSWPIRQAPSLHNLFAVCRNMYNWLLQNPKNVCVVHCLDGRAASSILVGAMFIFCNLYSTPGPAVRLLYAKRPGIGLSPSHRRYLGYMCDLLADKPYRPHFKPLTIKAITVSPVPFFNKQRNGCRPYCDVLIGETKIYSTCTDFERMKEYRVQDGKIFIPLNITVQGDVIVSMYHLRSTIGSRLQAKVTNTQIFQLQFHSGFIPLDTTVLKFTKPELDACDVPEKYPQLFQVTLDIEVQPQDKVIDLTPPWEHYCTKDVNPSILFSSQQEHQDTLALGGQAPADLPPDHPRNLGQGGFFASLCWQDQKSEKSRCEEDHAALVNQESEQSDDELLTLSSPHGNAEGDKPHGAKKPGKKQQEPAAPPPPEEVDLLGLEGSDVSTNFSSLAAPPSNSELLSDLFGGVGATGPAQAGQAGVEDVFHPSGPVSAQSTPRRTATSASASPTLRVGEGATFDPFGAPAKPPGQDLLGSFLNTSSASSDPFLQPTRSPSPTVHASSTPAVNIQPDIAGGWDWHTKPGGFGMGSKSAATSPTGSSHGTPTHQSKPQTLDPFADLGTLGSSSFASKPTTPTGLGGGFPPLSSPQKASPQPMGGGWQQPAGYNWQQTQSKPQSSMPHSSPQNRPNYNVSFSAMPAGQSERGKGSTNLEGKQKAADFEDLLSSQGFNAHKDKKGPRTIAEMRKEEMAKEMDPEKLKILEWIEGKERNIRALLSTMHTVLWAGETKWKPVGMADLVTPEQVKKVYRRAVLVVHPDKATGQPYEQYAKMIFMELNDAWSEFENQGQKPLY
Take B5: in test [1], the binding entry is reported as “binds”.

B6: DnaJC6 (endogenous, PS19 mouse brain) (protein, UniProt Q80TZ3 1-938)
chain: B5 chain
As to B6, the binding entry in test [2] is “binds”.
